PubChem BioAssay AID1224830, NIAID, 2016
The whole screen tested about 18,000 reagents; shown is a part drawn at random. About 2,900 of them (16%) count as active. 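Calls are made per well; low scores hint the gene aids the LPS response, high scores that it dampens it.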 Repeated entries: four replicate wells of each siRNA pool.

Assay: 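Host factors that control LPS-induced TNF expression in human macrophages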 (primary screen)
System: human THP-1 monocytic leukaemia cells, TNF dual-luciferase reporter clone, PMA-differentiated to macrophage-like cells
Knock-down reagent: siRNA pool against human genes, 50 nM
Duration: LPS for 4 h, given about 3 days after siRNA transfection
Challenge: bacterial LPS (TLR4 ligand), 10 ng/ml
Read-out: 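TNF firefly reporter luminescence divided by renilla, normalised to the plate median, then turned into a robust z-score for each replicate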
Direction: TNF reporter robust z-score: higher = stronger TNF reporter response to LPS
Active means: 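a well is active when its z-score exceeds 2.8 or falls below -1.5; control wells carry no call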

| gene symbol | TNF reporter robust z-score | call |
| --- | --- | --- |
| DGAT1 | 1.76 | inactive |
| DGAT1 | 2.89 | active |
| DGAT1 | 2.66 | inactive |
| DGAT1 | 4.15 | active |
| KDM6B | -0.2 | inactive |
| KDM6B | 0.71 | inactive |
| KDM6B | 0.13 | inactive |
| KDM6B | 0.82 | inactive |
| LILRA1 | -0.99 | inactive |
| LILRA1 | -0.31 | inactive |
| LILRA1 | -0.03 | inactive |
| LILRA1 | -0.72 | inactive |
| INSL6 | -0.6 | inactive |
| INSL6 | -1.22 | inactive |
| INSL6 | -0.83 | inactive |
| INSL6 | -0.57 | inactive |
| PPRC1 | 0.83 | inactive |
| PPRC1 | 2.14 | inactive |
| PPRC1 | 0.58 | inactive |
| PPRC1 | 2.75 | inactive |
| PYGM | -1.06 | inactive |
| PYGM | -1.69 | active |
| PYGM | -1.17 | inactive |
| PYGM | -0.18 | inactive |
| PYCR2 | 1.9 | inactive |
| PYCR2 | 1.17 | inactive |
| PYCR2 | 2.82 | active |
| PYCR2 | 4.29 | active |
| UXT | 0.98 | inactive |
| UXT | 1.01 | inactive |
| UXT | -0.15 | inactive |
| UXT | 2.33 | inactive |
| SLC2A9 | -0.76 | inactive |
| SLC2A9 | -1.11 | inactive |
| SLC2A9 | -0.37 | inactive |
| SLC2A9 | -0.31 | inactive |
| ZFP30 | 0.18 | inactive |
| ZFP30 | 0.43 | inactive |
| ZFP30 | 0.56 | inactive |
| ZFP30 | -0.02 | inactive |
| MBOAT2 | 2.74 | inactive |
| MBOAT2 | 2.75 | inactive |
| MBOAT2 | 1.32 | inactive |
| MBOAT2 | 0.38 | inactive |
| MAGEA2 | -0.69 | inactive |
| MAGEA2 | -0.37 | inactive |
| MAGEA2 | -1.01 | inactive |
| MAGEA2 | -1.69 | active |
